Values from PubChem BioAssay AID1259254 (NCATS, 2017).
Assay: 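Gene knock-downs that lead to re-replication, shown by excess G2 DNA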 (primary screen). Cell system: human HCT116 colorectal cancer cells. Reagent: single siRNA against human genes. Time to read-out: 3 days. Measurement: 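Imaged Hoechst DNA stain sorts each cell into a cycle phase by DNA amount; per plate, G2 fraction set to 0% for non-targeting and 100% for GMNN siRNA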. Scale: G2 robust z-score: higher = more G2 cells, more excess DNA replication. Active means: 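Active siRNAs have a G2 robust z of 5 or more median absolute deviations over the median, which in these data means about 38% or higher of GMNN control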.
The deposit covers about 59,000 reagents; this is an unselected part. Over the whole deposit, about 1,550 (2.6%) were called active. 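G2 share is only a proxy for re-replication; each gene was hit by three separate siRNAs, and active genes were retested.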 Unmarked entries are inactive. The numbers tell different reagents against one gene apart. Not all columns of the deposit are shown. Not stated in the record: the amount of reagent.

no.	target	reagent	G2 robust z-score
1	TMSB4Y (thymosin beta 4 Y-linked)	1	2.71
2	TMSB4Y (thymosin beta 4 Y-linked)	2	-0.789
3	TMSB4Y (thymosin beta 4 Y-linked)	3	-0.519
4	RNF187 (ring finger protein 187)	1	-0.323
5	RNF187 (ring finger protein 187)	2	1.09
6	RNF187 (ring finger protein 187)	3	-0.428
7	TVP23C (trans-golgi network vesicle protein 23 homolog C)	1	0.199
8	TVP23C (trans-golgi network vesicle protein 23 homolog C)	2	-0.0812
9	TVP23C (trans-golgi network vesicle protein 23 homolog C)	3	1.19
10	STK31 (serine/threonine kinase 31)	1	-1.07
11	STK31 (serine/threonine kinase 31)	2	-0.176
12	STK31 (serine/threonine kinase 31)	3	5.26 (active)
13	ARMC10 (armadillo repeat containing 10)	1	1.06
14	ARMC10 (armadillo repeat containing 10)	2	-0.773
15	ARMC10 (armadillo repeat containing 10)	3	-0.341
16	TMEM145 (transmembrane protein 145)	1	0.224
17	TMEM145 (transmembrane protein 145)	2	1.02
18	TMEM145 (transmembrane protein 145)	3	-0.796
19	P2RY6 (pyrimidinergic receptor P2Y6)	1	0.476
20	P2RY6 (pyrimidinergic receptor P2Y6)	2	3.75
21	P2RY6 (pyrimidinergic receptor P2Y6)	3	0.238
22	SYCP2 (synaptonemal complex protein 2)	1	-0.788
23	SYCP2 (synaptonemal complex protein 2)	2	0.406
24	SYCP2 (synaptonemal complex protein 2)	3	0.171
25	RASGRF2 (Ras protein specific guanine nucleotide releasing factor 2)	1	2.84
26	RASGRF2 (Ras protein specific guanine nucleotide releasing factor 2)	2	-0.0199
27	RASGRF2 (Ras protein specific guanine nucleotide releasing factor 2)	3	1.19
28	MAT2B (methionine adenosyltransferase 2 non-catalytic beta subunit)	1	-0.191
29	MAT2B (methionine adenosyltransferase 2 non-catalytic beta subunit)	2	0.348
30	MAT2B (methionine adenosyltransferase 2 non-catalytic beta subunit)	3	4.81
31	DRC1 (dynein regulatory complex subunit 1)	1	-0.259
32	DRC1 (dynein regulatory complex subunit 1)	2	1.6
33	DRC1 (dynein regulatory complex subunit 1)	3	0.268
34	PPP1R9A (protein phosphatase 1 regulatory subunit 9A)	1	-0.891
35	PPP1R9A (protein phosphatase 1 regulatory subunit 9A)	2	1.92
36	PPP1R9A (protein phosphatase 1 regulatory subunit 9A)	3	-0.454
37	AKR1C8 (aldo-keto reductase family 1 member C8)	1	1.3
38	AKR1C8 (aldo-keto reductase family 1 member C8)	2	0.14
39	AKR1C8 (aldo-keto reductase family 1 member C8)	3	-0.34
40	SMIM8 (small integral membrane protein 8)	1	-0.269
41	SMIM8 (small integral membrane protein 8)	2	2.5
42	SMIM8 (small integral membrane protein 8)	3	-1.14
43	SLC35F1	1	-0.182
44	SLC35F1	2	0.749
45	SLC35F1	3	5.02 (active)
46	ZFP28 (ZFP28 zinc finger protein)	1	5.07 (active)
47	ZFP28 (ZFP28 zinc finger protein)	2	-0.0372
48	ZFP28 (ZFP28 zinc finger protein)	3	1.8

2 entries from above in another layout:
target,reagent,G2 robust z-score
RNF187 (ring finger protein 187),3,-0.428
TVP23C (trans-golgi network vesicle protein 23 homolog C),1,0.199
